Reference: the supplement of paper PMC10849652
The other results are listed elsewhere or left out.

Amino acid sequences for entries named in this document (tags omitted). A change or cut given only in a name is not applied to a line headed by its entry.
UniProt Q9NUJ3: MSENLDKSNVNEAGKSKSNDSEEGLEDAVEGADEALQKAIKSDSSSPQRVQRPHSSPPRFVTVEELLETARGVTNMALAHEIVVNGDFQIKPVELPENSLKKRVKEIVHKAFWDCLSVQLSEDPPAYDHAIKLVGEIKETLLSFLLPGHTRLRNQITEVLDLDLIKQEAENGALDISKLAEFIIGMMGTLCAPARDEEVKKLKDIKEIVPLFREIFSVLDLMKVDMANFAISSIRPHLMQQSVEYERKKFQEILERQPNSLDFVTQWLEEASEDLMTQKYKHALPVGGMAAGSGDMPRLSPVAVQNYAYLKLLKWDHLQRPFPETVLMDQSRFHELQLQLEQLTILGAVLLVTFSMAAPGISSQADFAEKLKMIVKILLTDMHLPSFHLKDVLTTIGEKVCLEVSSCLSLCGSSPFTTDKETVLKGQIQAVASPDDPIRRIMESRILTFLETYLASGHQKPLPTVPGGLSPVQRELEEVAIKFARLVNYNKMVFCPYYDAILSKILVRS
UniProt Q9H5Q4: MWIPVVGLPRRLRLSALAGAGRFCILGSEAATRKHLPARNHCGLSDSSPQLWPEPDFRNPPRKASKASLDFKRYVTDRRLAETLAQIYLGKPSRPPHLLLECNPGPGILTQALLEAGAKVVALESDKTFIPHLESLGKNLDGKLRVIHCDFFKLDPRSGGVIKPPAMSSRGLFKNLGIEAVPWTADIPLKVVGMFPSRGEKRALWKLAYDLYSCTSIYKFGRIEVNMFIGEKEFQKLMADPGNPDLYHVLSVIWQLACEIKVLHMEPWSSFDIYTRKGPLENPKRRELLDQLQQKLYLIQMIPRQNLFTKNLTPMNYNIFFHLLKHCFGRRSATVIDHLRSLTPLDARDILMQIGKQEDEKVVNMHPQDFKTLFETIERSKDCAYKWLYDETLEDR
UniProt P17987, whole entry, looked up: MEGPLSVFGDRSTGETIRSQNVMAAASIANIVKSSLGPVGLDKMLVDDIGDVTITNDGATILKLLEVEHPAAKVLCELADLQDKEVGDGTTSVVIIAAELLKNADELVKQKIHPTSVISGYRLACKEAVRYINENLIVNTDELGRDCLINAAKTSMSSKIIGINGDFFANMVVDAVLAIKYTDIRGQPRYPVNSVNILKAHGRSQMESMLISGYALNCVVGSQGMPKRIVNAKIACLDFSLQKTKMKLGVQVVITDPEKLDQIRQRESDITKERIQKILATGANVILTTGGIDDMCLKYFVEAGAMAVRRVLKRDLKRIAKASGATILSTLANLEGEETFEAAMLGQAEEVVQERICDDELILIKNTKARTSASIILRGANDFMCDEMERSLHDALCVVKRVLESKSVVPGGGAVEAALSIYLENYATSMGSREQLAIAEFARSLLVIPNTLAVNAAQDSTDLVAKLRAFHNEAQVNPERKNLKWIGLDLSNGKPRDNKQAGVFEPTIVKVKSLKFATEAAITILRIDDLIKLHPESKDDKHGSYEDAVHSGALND
UniProt Q8NFU7: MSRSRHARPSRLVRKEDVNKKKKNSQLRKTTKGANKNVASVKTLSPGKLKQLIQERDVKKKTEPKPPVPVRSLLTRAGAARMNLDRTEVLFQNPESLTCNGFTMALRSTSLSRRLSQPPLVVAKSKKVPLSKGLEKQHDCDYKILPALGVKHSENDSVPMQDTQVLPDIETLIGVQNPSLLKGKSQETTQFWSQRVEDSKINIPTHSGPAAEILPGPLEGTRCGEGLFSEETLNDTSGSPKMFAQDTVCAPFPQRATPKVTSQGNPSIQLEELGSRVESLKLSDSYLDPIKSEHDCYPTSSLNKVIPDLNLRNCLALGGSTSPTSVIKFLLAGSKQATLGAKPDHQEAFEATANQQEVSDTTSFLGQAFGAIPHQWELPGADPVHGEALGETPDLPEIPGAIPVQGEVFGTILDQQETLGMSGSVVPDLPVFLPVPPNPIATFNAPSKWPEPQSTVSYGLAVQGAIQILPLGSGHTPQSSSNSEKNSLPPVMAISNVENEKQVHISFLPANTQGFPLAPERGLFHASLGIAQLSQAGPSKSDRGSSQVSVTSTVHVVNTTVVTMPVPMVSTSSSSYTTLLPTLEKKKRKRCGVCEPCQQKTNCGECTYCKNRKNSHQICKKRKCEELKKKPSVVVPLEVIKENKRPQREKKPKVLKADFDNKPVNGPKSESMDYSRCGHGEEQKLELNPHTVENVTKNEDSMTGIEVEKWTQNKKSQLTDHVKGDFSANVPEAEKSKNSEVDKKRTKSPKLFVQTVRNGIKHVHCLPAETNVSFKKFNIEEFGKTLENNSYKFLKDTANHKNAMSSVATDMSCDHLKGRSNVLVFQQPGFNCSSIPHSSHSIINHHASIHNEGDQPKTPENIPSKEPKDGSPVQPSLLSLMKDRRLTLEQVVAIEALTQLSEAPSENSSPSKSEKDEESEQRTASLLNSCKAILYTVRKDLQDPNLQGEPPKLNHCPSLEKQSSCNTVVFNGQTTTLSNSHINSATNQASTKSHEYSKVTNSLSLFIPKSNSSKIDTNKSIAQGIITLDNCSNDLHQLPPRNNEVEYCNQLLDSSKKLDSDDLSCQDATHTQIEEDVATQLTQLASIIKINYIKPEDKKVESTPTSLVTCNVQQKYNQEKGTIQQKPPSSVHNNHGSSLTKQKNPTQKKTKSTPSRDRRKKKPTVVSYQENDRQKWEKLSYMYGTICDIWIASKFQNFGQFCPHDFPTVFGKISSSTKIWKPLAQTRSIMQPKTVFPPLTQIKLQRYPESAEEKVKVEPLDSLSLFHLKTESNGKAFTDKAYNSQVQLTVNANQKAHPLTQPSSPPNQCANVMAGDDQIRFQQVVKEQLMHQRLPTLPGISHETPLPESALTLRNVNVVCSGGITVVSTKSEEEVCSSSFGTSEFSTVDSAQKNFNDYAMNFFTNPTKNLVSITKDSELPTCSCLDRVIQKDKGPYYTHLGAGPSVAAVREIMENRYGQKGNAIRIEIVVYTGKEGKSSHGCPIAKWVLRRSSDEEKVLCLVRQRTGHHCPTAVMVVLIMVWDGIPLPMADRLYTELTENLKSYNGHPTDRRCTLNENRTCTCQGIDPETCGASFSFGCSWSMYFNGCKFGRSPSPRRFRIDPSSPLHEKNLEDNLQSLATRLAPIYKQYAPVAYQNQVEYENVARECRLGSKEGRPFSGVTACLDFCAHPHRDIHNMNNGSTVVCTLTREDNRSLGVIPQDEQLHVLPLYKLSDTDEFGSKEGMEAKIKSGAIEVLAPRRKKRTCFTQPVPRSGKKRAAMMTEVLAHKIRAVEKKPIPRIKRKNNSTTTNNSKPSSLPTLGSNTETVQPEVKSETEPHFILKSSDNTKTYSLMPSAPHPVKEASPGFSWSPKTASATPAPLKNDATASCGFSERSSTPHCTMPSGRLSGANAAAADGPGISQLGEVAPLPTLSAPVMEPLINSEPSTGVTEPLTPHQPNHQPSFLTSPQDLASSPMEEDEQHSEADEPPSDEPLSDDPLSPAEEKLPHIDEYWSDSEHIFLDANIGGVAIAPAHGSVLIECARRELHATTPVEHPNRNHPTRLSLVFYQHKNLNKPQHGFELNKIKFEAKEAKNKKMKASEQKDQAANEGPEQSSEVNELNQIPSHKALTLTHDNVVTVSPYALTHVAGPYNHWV
UniProt Q6ICL3: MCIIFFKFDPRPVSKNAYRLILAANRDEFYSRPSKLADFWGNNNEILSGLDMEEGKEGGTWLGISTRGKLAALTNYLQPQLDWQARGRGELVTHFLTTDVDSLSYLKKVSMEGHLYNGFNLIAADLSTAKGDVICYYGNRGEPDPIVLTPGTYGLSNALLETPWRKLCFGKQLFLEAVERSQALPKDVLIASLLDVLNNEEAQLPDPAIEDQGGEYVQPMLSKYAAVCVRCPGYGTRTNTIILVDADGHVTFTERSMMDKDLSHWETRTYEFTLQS
UniProt Q9UPU7: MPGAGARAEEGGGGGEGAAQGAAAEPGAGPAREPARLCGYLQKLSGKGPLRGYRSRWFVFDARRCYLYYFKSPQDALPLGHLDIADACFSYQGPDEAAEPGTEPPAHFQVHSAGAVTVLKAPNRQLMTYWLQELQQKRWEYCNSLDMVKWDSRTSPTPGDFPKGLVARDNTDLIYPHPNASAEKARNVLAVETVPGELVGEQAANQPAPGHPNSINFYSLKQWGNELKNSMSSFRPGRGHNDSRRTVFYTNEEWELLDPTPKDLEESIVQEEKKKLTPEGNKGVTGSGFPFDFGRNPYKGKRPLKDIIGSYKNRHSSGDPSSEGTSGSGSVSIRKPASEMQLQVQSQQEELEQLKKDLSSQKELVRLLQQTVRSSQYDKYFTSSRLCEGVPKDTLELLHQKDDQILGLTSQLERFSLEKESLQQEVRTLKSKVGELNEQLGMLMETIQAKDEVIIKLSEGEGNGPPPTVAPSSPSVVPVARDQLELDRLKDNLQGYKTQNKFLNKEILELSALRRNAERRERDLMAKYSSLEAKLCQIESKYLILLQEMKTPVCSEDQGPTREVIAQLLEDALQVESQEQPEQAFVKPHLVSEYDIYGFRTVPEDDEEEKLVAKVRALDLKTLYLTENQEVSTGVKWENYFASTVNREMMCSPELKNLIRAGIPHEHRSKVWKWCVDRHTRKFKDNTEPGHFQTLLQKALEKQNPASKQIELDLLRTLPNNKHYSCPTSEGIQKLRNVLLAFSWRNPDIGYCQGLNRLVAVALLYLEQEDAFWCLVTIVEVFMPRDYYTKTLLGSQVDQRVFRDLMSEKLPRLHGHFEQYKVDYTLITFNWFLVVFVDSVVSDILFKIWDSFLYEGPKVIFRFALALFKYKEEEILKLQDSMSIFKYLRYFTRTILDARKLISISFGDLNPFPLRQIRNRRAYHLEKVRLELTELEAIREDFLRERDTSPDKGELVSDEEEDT
UniProt Q9BZK7: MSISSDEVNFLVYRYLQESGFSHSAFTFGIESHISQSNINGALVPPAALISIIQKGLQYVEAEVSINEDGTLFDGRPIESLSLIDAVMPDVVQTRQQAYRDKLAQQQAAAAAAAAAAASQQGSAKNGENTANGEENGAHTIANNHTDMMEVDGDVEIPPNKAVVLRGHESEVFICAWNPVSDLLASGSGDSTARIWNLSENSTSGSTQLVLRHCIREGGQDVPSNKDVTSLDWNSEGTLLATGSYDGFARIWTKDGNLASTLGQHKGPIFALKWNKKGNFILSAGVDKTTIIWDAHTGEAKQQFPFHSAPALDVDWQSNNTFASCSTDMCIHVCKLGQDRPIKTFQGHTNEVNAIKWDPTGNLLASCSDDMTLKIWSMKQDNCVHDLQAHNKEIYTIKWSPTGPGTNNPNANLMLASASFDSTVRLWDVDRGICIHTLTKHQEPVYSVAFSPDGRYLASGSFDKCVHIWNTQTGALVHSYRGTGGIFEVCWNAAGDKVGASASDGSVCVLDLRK
UniProt O14776: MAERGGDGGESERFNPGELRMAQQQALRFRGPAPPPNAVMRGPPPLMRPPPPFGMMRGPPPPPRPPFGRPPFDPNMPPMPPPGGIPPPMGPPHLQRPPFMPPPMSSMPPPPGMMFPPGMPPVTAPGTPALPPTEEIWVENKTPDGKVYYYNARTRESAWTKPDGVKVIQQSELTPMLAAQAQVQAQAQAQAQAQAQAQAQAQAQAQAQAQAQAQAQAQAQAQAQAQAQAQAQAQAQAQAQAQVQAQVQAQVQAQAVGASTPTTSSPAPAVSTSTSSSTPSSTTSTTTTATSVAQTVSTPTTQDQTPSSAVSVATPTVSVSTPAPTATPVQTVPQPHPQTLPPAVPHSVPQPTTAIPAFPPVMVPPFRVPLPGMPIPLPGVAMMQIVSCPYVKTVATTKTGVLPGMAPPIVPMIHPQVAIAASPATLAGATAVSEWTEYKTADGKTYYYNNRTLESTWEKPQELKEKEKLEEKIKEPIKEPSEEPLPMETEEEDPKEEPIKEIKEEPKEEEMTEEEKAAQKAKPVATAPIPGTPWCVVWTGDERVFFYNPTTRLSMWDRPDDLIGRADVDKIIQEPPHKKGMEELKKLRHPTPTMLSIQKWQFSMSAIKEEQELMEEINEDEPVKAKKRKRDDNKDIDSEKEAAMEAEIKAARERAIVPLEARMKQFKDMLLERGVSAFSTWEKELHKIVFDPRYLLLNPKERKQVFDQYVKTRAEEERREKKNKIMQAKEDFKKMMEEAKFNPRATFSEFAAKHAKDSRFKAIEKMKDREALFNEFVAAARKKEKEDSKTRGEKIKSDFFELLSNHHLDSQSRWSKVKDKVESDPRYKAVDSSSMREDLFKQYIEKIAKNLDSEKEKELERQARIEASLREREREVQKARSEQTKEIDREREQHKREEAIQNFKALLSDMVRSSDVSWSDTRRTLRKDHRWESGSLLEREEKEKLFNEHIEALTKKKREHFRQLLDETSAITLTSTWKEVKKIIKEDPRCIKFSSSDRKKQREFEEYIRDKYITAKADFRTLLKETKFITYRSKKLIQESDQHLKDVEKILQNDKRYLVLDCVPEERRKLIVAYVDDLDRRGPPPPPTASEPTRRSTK

Tests used:
Assay in all cases: log2 fold change, soluble protein after heating vs DMSO (PISA); higher = thermal stabilisation; K562 lysate, 10 uM; active = over 0.2 and 3.5 SD of the protein, either way, in both replicates (recomputed)
alvocidib = compound: CN1CC[C@H](c2c(O)cc(O)c3c(=O)cc(-c4ccccc4Cl)oc23)[C@H](O)C1 [alvocidib]
Summary of the method: (§1)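 To prepare the extract, K562 pellets were dounce-homogenised in PBS pH 7.4 with 1 mM MgCl2, giving crude material at 1 mg/mL protein. This was treated with 10 μM compound for 30 min, then heated in aliquots for 3 min over 48°C-58°C before pooling and addition of NP-40 to 0.5% at 4°C. Centrifugation at 21,000xg for 90 min left soluble protein in the supernatant, which TMTpro 16plex LC-MS/MS quantified with equalised channel sums. Results are log-two fold changes in thermal stability compared with solvent controls, from duplicates.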

Tubastatin A = compound: CN1CCc2c(c3ccccc3n2Cc2ccc(C(=O)NO)cc2)C1 [Tubastatin A]
Summary of the method: as §1

[1] = compound: CNC(=O)C1=CC=CC=C1NC2=NC(=NC=C2Cl)NC3=C(C=C(C=C3)N4CCOCC4)OC
Summary of the method: as §1

defactinib = compound: CNC(=O)c1ccc(Nc2ncc(C(F)(F)F)c(NCc3nccnc3N(C)S(C)(=O)=O)n2)cc1 [defactinib]
Summary of the method: as §1

[2] = compound: CNc1nc(-c2ccc3c(N)n[nH]c3c2)cc(N2C[C@@H](C(=O)NC3CCCCC3)CC[C@H]2C)n1
Summary of the method: as §1

encorafenib = compound: COC(=O)N[C@@H](C)CNc1nccc(-c2cn(C(C)C)nc2-c2cc(Cl)cc(NS(C)(=O)=O)c2F)n1 [encorafenib]
Summary of the method: as §1

[3] = compound: COC(=O)[C@H](CCSC)NC(=O)C1=C(C=C(C=C1)NC[C@H](CS)N)C2=CC=CC=C2
Summary of the method: as §1

alisertib = compound: COc1cc(Nc2ncc3c(n2)-c2ccc(Cl)cc2C(c2c(F)cccc2OC)=NC3)ccc1C(=O)O [alisertib]
Summary of the method: as §1

[4] = compound: COc1cc2nc(-c3cc(F)ccc3O)nc(N[C@@H]3CNC[C@H]3C(C)(C)O)c2cc1OC
Summary of the method: as §1

gefitinib = compound: COc1cc2ncnc(Nc3ccc(F)c(Cl)c3)c2cc1OCCCN1CCOCC1 [gefitinib]
Summary of the method: as §1

lapatinib = compound: CS(=O)(=O)CCNCc1ccc(-c2ccc3ncnc(Nc4ccc(OCc5cccc(F)c5)c(Cl)c4)c3c2)o1 [lapatinib]
Summary of the method: as §1

pictilisib = compound: CS(=O)(=O)N1CCN(Cc2cc3nc(-c4cccc5[nH]ncc45)nc(N4CCOCC4)c3s2)CC1 [pictilisib]
Summary of the method: as §1

crizotinib = compound: C[C@@H](Oc1cc(-c2cnn(C3CCNCC3)c2)cnc1N)c1c(Cl)ccc(F)c1Cl [crizotinib]
Summary of the method: as §1

[5] = compound: C[C@H](C1=CC=C(C=C1)C(=O)NC2=C3C=CNC3=NC=C2)N
Summary of the method: as §1

duvelisib = compound: C[C@H](Nc1ncnc2nc[nH]c12)c1cc2cccc(Cl)c2c(=O)n1-c1ccccc1 [duvelisib]
Summary of the method: as §1

gandotinib = compound: Cc1cc(Nc2cc(CN3CCOCC3)c3nc(C)c(Cc4ccc(Cl)cc4F)n3n2)n[nH]1 [gandotinib]
Summary of the method: as §1

tozasertib = compound: Cc1cc(Nc2cc(N3CCN(C)CC3)nc(Sc3ccc(NC(=O)C4CC4)cc3)n2)n[nH]1 [tozasertib]
Summary of the method: as §1

doramapimod = compound: Cc1ccc(-n2nc(C(C)(C)C)cc2NC(=O)Nc2ccc(OCCN3CCOCC3)c3ccccc23)cc1 [doramapimod]
Summary of the method: as §1

bafetinib = compound: Cc1ccc(NC(=O)c2ccc(CN3CC[C@H](N(C)C)C3)c(C(F)(F)F)c2)cc1Nc1nccc(-c2cncnc2)n1 [bafetinib]
Summary of the method: as §1

[6] = compound: Cc1cccc(CC(=O)N2CCc3c2ccc(-c2cn(C)c4ncnc(N)c24)c3F)n1
Summary of the method: as §1

Row | Target | log2 fold change (alvocidib) | log2 fold change (Tubastatin A) | log2 fold change [1] | log2 fold change (defactinib) | log2 fold change [2] | log2 fold change (encorafenib) | log2 fold change [3] | log2 fold change (alisertib) | log2 fold change [4] | log2 fold change (gefitinib) | log2 fold change (lapatinib) | log2 fold change (pictilisib) | log2 fold change (crizotinib) | log2 fold change [5] | log2 fold change (duvelisib) | log2 fold change (gandotinib) | log2 fold change (tozasertib) | log2 fold change (doramapimod) | log2 fold change (bafetinib) | log2 fold change [6]
1 | TCP11L1 (UniProt Q9NUJ3) | inactive: -0.098 | inactive: -0.006 | inactive: 0.029 | inactive: 0.023 | inactive: -0.064 | inactive: 0.006 | inactive: -0.064 | inactive: -0.022 | inactive: 0.032 | inactive: -0.001 | inactive: -0.008 | inactive: -0.028 | inactive: -0.022 | inactive: -0.204 | inactive: -0.024 | inactive: 0.066 | inactive: -0.069 | inactive: -0.017 | inactive: -0.007 | inactive: 0.146
2 | TBL1X (UniProt O60907) | inactive: 0 | inactive: -0.111 | inactive: -0.019 | inactive: 0.016 | inactive: -0.134 | inactive: -0.007 | inactive: -0.03 | inactive: 0.015 | inactive: 0.014 | inactive: -0.008 | inactive: -0.011 | inactive: -0.047 | inactive: 0.085 | inactive: -0.016 | inactive: -0.032 | inactive: 0.05 | inactive: 0.004 | inactive: 0.027 | inactive: -0.035 | inactive: 0.036
3 | TFB2M (UniProt Q9H5Q4) | inactive: 0.026 | inactive: -0.011 | inactive: 0.03 | inactive: -0.001 | inactive: -0.001 | inactive: 0.012 | inactive: -0.045 | inactive: 0.013 | inactive: 0.004 | inactive: -0.029 | inactive: -0.018 | inactive: 0.005 | inactive: -0.042 | inactive: -0.008 | inactive: -0.034 | inactive: -0.193 | inactive: 0.025 | inactive: -0.002 | inactive: 0.303 | inactive: 0.017
4 | TCP1 (UniProt P17987) | inactive: 0.015 | inactive: 0.019 | inactive: 0 | inactive: -0.018 | inactive: 0.008 | inactive: -0.011 | inactive: -0.022 | inactive: 0.014 | inactive: 0.005 | inactive: -0.028 | inactive: -0.024 | inactive: 0.003 | inactive: 0.01 | inactive: 0.012 | inactive: 0.025 | inactive: -0.007 | inactive: -0.008 | inactive: -0.001 | inactive: 0.03 | inactive: -0.006
5 | TARBP1 (UniProt Q13395) | inactive: 0.009 | inactive: -0.118 | inactive: -0.066 | inactive: -0.034 | inactive: 0.047 | inactive: 0.073 | inactive: -0.236 | inactive: 0.018 | inactive: -0.004 | inactive: 0.011 | inactive: -0.009 | inactive: 0.007 | inactive: -0.122 | inactive: 0.017 | inactive: -0.034 | inactive: -0.124 | inactive: 0.098 | inactive: -0.022 | inactive: -0.044 | inactive: 0.079
6 | TARS1 (UniProt P26639) | inactive: -0.002 | inactive: 0.009 | inactive: -0.017 | inactive: -0.01 | inactive: 0.015 | inactive: -0.029 | inactive: 0.055 | inactive: 0 | inactive: -0.001 | inactive: -0.031 | inactive: -0.003 | inactive: -0.014 | inactive: 0.002 | inactive: -0.018 | inactive: -0.014 | inactive: -0.013 | inactive: -0.004 | inactive: 0.013 | inactive: 0.011 | inactive: 0.003
7 | TCAF2 (UniProt A6NFQ2) | inactive: -0.016 | inactive: -0.183 | inactive: -0.026 | inactive: 0.067 | inactive: -0.026 | inactive: 0.006 | inactive: 0.044 | inactive: 0.03 | inactive: -0.067 | inactive: -0.042 | inactive: 0.024 | inactive: -0.017 | inactive: -0.108 | inactive: -0.02 | inactive: 0.004 | inactive: -0.098 | inactive: 0.008 | inactive: -0.03 | inactive: -0.048 | inactive: 0.041
8 | TET1 (UniProt Q8NFU7) | inactive: -0.303 | inactive: 0.414 | inactive: -0.059 | inactive: -0.06 | inactive: 0.63 | inactive: -0.02 | inactive: 0.028 | inactive: -0.006 | inactive: 0.096 | inactive: -0.092 | inactive: -0.12 | inactive: -0.041 | inactive: -0.316 | inactive: -0.581 | inactive: 0.131 | inactive: 0.562 | inactive: -0.049 | inactive: -0.018 | inactive: -0.209 | inactive: 0.61
9 | TALDO1 (UniProt P37837) | inactive: 0.032 | inactive: 0.014 | inactive: -0.028 | inactive: -0.012 | inactive: -0.069 | inactive: -0.026 | inactive: 0.027 | inactive: 0.017 | inactive: -0.049 | inactive: 0.005 | inactive: 0.085 | inactive: 0.025 | inactive: 0.039 | inactive: 0.035 | inactive: -0.018 | inactive: -0.1 | inactive: -0.014 | inactive: -0.026 | inactive: -0.008 | inactive: -0.103
10 | TBC1D23 (UniProt Q9NUY8) | inactive: 0 | inactive: -0.076 | inactive: 0.025 | inactive: -0.006 | inactive: 0.05 | inactive: -0.009 | inactive: -0.019 | inactive: -0.014 | inactive: 0.002 | inactive: -0.006 | inactive: -0.007 | inactive: -0.016 | inactive: -0.031 | inactive: -0.033 | inactive: -0.012 | inactive: 0.03 | inactive: 0.034 | inactive: 0.017 | inactive: -0.027 | inactive: 0.048
11 | TCIRG1 (UniProt Q13488) | inactive: -0.01 | inactive: 0.026 | inactive: 0.017 | inactive: 0.086 | inactive: 0.02 | inactive: 0.103 | inactive: -0.004 | inactive: -0.043 | inactive: 0.037 | inactive: 0.122 | inactive: 0.037 | inactive: -0.036 | inactive: -0.022 | inactive: -0.007 | inactive: -0.069 | inactive: 0.006 | inactive: -0.049 | inactive: -0.091 | inactive: -0.05 | inactive: 0.003
12 | TANGO2 isoform 4 (UniProt Q6ICL3) | inactive: -0.053 | inactive: -0.02 | inactive: 0.067 | inactive: 0.012 | inactive: -0.017 | inactive: 0.01 | inactive: 0.011 | inactive: -0.019 | inactive: -0.004 | inactive: 0 | inactive: 0.013 | inactive: -0.018 | inactive: -0.018 | inactive: 0.057 | inactive: 0.005 | inactive: -0.066 | inactive: 0.054 | inactive: 0.009 | inactive: 0.114 | inactive: 0
13 | TBC1D2B (UniProt Q9UPU7) | inactive: -0.023 | inactive: -0.157 | inactive: 0.038 | inactive: 0.04 | inactive: -0.047 | inactive: 0.03 | inactive: 0.063 | inactive: 0.011 | inactive: 0.103 | inactive: -0.001 | inactive: 0.076 | inactive: 0.006 | inactive: 0.041 | inactive: 0.007 | inactive: 0.027 | inactive: -0.096 | inactive: -0.005 | inactive: 0.007 | inactive: -0.057 | inactive: 0.052
14 | TBRG4 (UniProt Q969Z0) | inactive: 0.017 | inactive: -0.089 | inactive: 0.007 | inactive: 0.071 | inactive: -0.018 | inactive: 0.01 | inactive: -0.013 | inactive: 0.037 | inactive: -0.008 | inactive: -0.015 | inactive: -0.021 | inactive: -0.039 | inactive: -0.031 | inactive: 0.08 | inactive: 0.006 | active: -0.269 | inactive: 0.038 | inactive: -0.012 | inactive: -0.029 | inactive: -0.021
15 | TBL1XR1 (UniProt Q9BZK7) | inactive: -0.02 | inactive: 0.055 | inactive: 0.05 | inactive: 0.014 | inactive: -0.008 | inactive: 0.025 | inactive: -0.028 | inactive: -0.047 | inactive: 0.035 | inactive: -0.028 | inactive: -0.003 | inactive: -0.022 | inactive: 0.037 | inactive: 0.034 | inactive: 0.001 | inactive: -0.061 | inactive: -0.003 | inactive: -0.001 | inactive: -0.043 | inactive: -0.048
16 | TCERG1 (UniProt O14776) | inactive: -0.009 | inactive: -0.005 | inactive: -0.005 | inactive: 0.005 | inactive: 0.039 | inactive: 0.001 | inactive: 0.026 | inactive: 0.022 | inactive: -0.003 | inactive: -0.008 | inactive: 0.008 | inactive: -0.013 | inactive: 0.043 | inactive: -0.026 | inactive: -0.043 | inactive: -0.012 | inactive: 0.006 | inactive: -0.024 | inactive: -0.029 | inactive: 0.033

Some values from the entries so far:
Under log2 fold change (defactinib), TARS1 (UniProt P26639) has the entry inactive: -0.01
Under log2 fold change (gefitinib), TALDO1 (UniProt P37837) has the entry inactive: 0.005
